In patent US7807659B2, “Caspase inhibitors and uses thereof” (Vertex Pharmaceuticals Incorporated, priority 2001, dated 2010):
Counter-ions that a name gives are not always drawn. Some results were stated once for a whole list of compounds, not compound by compound. Square brackets hold non-standard residues; d marks the D form. Peptide text beside a SMILES is read from it. * marks the point of attachment. ξ: configuration not given here. Pip = O=C(O)[C@@H]1CCCCN1; ξD = NC(CC(=O)O)C(=O)O; Bz = O=C(c1ccccc1)*; CH2F = FC*

Sequences of proteins named here, by UniProt entry; tags and fusion partners are left off. Residues count along the entry.
UniProt Q14790, 385-479 limits assumed: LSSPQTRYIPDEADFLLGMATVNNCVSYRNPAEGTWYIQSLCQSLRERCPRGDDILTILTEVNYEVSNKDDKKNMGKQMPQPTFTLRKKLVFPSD
UniProt Q14790, 217-374 limits assumed: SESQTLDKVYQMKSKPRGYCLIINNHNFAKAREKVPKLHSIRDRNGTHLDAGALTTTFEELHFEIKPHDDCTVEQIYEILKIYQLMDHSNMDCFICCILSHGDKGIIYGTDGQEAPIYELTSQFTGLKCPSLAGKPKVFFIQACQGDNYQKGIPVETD

Tests used:
Assay in all cases: Caspase enzyme assay (fluorogenic substrate cleavage)
Type in all cases: biochemical
human Caspase-1 = molecular target: T1, human Caspase-1 (Homo sapiens, UniProt P29466); details: recombinant, purified human caspase-1
T1 sequence (P29466 120-297 limits assumed): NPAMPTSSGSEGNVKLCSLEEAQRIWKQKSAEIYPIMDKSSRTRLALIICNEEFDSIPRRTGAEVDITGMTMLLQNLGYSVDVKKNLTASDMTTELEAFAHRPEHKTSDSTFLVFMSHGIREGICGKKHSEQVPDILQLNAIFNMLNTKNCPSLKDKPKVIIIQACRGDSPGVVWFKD
T1 sequence (P29466 317-404 limits assumed): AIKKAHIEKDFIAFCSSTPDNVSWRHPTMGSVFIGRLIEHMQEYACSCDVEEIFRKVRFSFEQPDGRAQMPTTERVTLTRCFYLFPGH

human Caspase-8 = human Caspase-8 (Homo sapiens, UniProt Q14790); details: recombinant, purified human caspase-8
human Caspase-3 = molecular target: T2, human Caspase-3 (Homo sapiens, UniProt P42574); details: recombinant, purified human caspase-3
T2 sequence (P42574 29-175 limits assumed): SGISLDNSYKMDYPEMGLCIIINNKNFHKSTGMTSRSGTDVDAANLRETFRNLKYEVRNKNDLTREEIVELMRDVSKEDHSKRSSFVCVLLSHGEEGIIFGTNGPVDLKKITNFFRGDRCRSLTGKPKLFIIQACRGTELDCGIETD
T2 sequence (P42574 176-277 limits assumed): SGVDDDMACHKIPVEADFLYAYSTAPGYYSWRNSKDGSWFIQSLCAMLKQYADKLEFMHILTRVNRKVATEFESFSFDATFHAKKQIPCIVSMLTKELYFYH

O=C(O)CC(NC(=O)[C@@H]1CCCCN1C(=O)c1csc(-c2ccccc2)n1)C(=O)CF (stereo partly drawn) [Compound 1, [3S/R (2S)]-5-Fluoro-4-oxo-3-[1-(2-phenyl-thiazole-4-carbonyl)-2-piperidinecarboxamido]-pentanoic acid]
> 5,000 M^−1s^−1: Kinact against caspase-1 (human Caspase-1) | Kinact against caspase-8 (human Caspase-8) | Kinact against caspase-3 (human Caspase-3)

Cc1nc(C(F)(F)F)c(C(=O)N2CCCC[C@H]2C(=O)NC(CC(=O)O)C(=O)CF)s1 (stereo partly drawn) [Compound 4, [3S/R,(2S)]-5-Fluoro-4-oxo-3-[1-(2-methyl-4-trifluoromethyl-thiazole-5-carbonyl)-2-piperidinecarboxamido]-pentanoic acid]
> 5,000 M^−1s^−1: Kinact against caspase-1 (human Caspase-1) | Kinact against caspase-8 (human Caspase-8) | Kinact against caspase-3 (human Caspase-3)

COc1cccc2cc(C(=O)N3CCCC[C@H]3C(=O)NC(CC(=O)O)C(=O)CF)oc12 (stereo partly drawn) [Compound 5, [3S/R,(2S)]-5-Fluoro-4-oxo-3-[1-(7-methoxy-benzofuran-2-carbonyl)-2-piperidine-carboxamido]-pentanoic acid]
> 5,000 M^−1s^−1: Kinact against caspase-1 (human Caspase-1) | Kinact against caspase-8 (human Caspase-8) | Kinact against caspase-3 (human Caspase-3)

Cc1cc(-c2ccccc2)sc1C(=O)N1CCCC[C@H]1C(=O)NC(CC(=O)O)C(=O)CF (stereo partly drawn) [Compound 11, [3S/R,(2S)]-5-Fluoro-3-{[1-(3-methyl-5-phenyl-thiophene-2-carbonyl)piperidine-2-carbonyl]-amino}-4-oxo-pentanoic acid]
> 5,000 M^−1s^−1: Kinact against caspase-1 (human Caspase-1) | Kinact against caspase-8 (human Caspase-8) | Kinact against caspase-3 (human Caspase-3)

O=C(O)CC(NC(=O)[C@@H]1CCCCN1C(=O)c1ccccn1)C(=O)CF (stereo partly drawn) [Compound 14, [3S/R,(2S)]-5-Fluoro-4-oxo-3-{[1-(pyridine-2-carbonyl)-piperidine-2-carbonyl]-amino}-pentanoic acid]
> 5,000 M^−1s^−1: Kinact against caspase-1 (human Caspase-1) | Kinact against caspase-8 (human Caspase-8) | Kinact against caspase-3 (human Caspase-3)

O=C(O)CC(NC(=O)[C@@H]1CCCCN1C(=O)c1nccc2ccccc12)C(=O)CF (stereo partly drawn) [Compound 2, [3S/R (2S)]-5-Fluoro-4-oxo-3-[1-(isoquinoline-1-carbonyl)-2-piperidinecarboxamido]-pentanoic acid, trifluoroacetic acid salt]
> 5,000 M^−1s^−1: Kinact against caspase-1 (human Caspase-1) | Kinact against caspase-8 (human Caspase-8) | Kinact against caspase-3 (human Caspase-3)

O=C(O)CC(NC(=O)[C@@H]1CCCCN1C(=O)c1cccc(-c2ccccc2)c1)C(=O)CF (stereo partly drawn) [Compound 15, [3S/R,(2S)]-3-{[1-(Biphenyl-3-carbonyl)-piperidine-2-carbonyl]-amino}-5-fluoro-4-oxo-pentanoic acid]
> 5,000 M^−1s^−1: Kinact against caspase-1 (human Caspase-1) | Kinact against caspase-8 (human Caspase-8) | Kinact against caspase-3 (human Caspase-3)

O=C(O)CC(NC(=O)[C@@H]1CCCCN1C(=O)c1sc2ccccc2c1Cl)C(=O)CF (stereo partly drawn) [Compound 6, [3S/R,(2S)]-5-Fluoro-4-oxo-3-[1-(3-chloro-benzo[b]thiophene-2-carbonyl)-2-piperidinecarboxamido]-pentanoic acid]
> 5,000 M^−1s^−1: Kinact against caspase-1 (human Caspase-1) | Kinact against caspase-8 (human Caspase-8) | Kinact against caspase-3 (human Caspase-3)

O=C(O)CC(NC(=O)[C@@H]1CCCCN1C(=O)c1sccc1Cl)C(=O)CF (stereo partly drawn) [Compound 7, [3S/R,(2S)]-5-Fluoro-4-oxo-3-[1-(3-chloro-thiophene-2-carbonyl)-2-piperidinecarboxamido]-pentanoic acid]
> 5,000 M^−1s^−1: Kinact against caspase-1 (human Caspase-1) | Kinact against caspase-8 (human Caspase-8) | Kinact against caspase-3 (human Caspase-3)

O=C(O)CC(NC(=O)[C@@H]1CCCCN1C(=O)c1ccc(-c2cccc(C(F)(F)F)c2)o1)C(=O)CF (stereo partly drawn) [Compound 10, [3S/R,(2S)]-5-Fluoro-4-oxo-3-[1-[2-(3-trifluoromethyl-phenyl)-furan-4-carbonyl]-2-piperidinecarboxamido]-pentanoic acid]
> 5,000 M^−1s^−1: Kinact against caspase-1 (human Caspase-1) | Kinact against caspase-8 (human Caspase-8) | Kinact against caspase-3 (human Caspase-3)

O=C(O)CC(NC(=O)[C@@H]1CCCCN1C(=O)c1csc(-c2cccc(C(F)(F)F)c2)n1)C(=O)CF (stereo partly drawn) [Compound 9, [3S/R,(2S)]-5-Fluoro-4-oxo-3-[1-[2-(3-trifluoromethyl-phenyl)-thiazole-4-carbonyl]-2-piperidinecarboxamido]-pentanoic acid]
> 5,000 M^−1s^−1: Kinact against caspase-1 (human Caspase-1) | Kinact against caspase-8 (human Caspase-8) | Kinact against caspase-3 (human Caspase-3)

Cc1cc(-c2cccc(C(F)(F)F)c2)sc1C(=O)N1CCCC[C@H]1C(=O)NC(CC(=O)O)C(=O)CF (stereo partly drawn) [Compound 12, [3S/R,(2S)]-5-Fluoro-3-({1-[3-methyl-5-(3-trifluoromethyl-phenyl)-thiophene-2-carbonyl]-piperidine-2-carbonyl}-amino)-4-oxo-pentanoic acid]
> 5,000 M^−1s^−1: Kinact against caspase-1 (human Caspase-1) | Kinact against caspase-8 (human Caspase-8) | Kinact against caspase-3 (human Caspase-3)

O=C(O)CC(NC(=O)[C@@H]1CCCCN1C(=O)c1ccc(-c2cccc(C(F)(F)F)c2)s1)C(=O)CF (stereo partly drawn) [Compound 13, [3S/R,(2S)]-5-Fluoro-4-oxo-3-({1-[5-(3-trifluoromethyl-phenyl)-thiophene-2-carbonyl]-piperidine-2S-carbonyl}-amino)-pentanoic acid]
> 5,000 M^−1s^−1: Kinact against caspase-1 (human Caspase-1) | Kinact against caspase-8 (human Caspase-8) | Kinact against caspase-3 (human Caspase-3)

O=C(O)CC(NC(=O)[C@@H]1CCCCN1C(=O)c1ccccc1)C(=O)CF (stereo partly drawn) [Compound 3, [3S/R,(2S)]-5-Fluoro-4-oxo-3-[1-benzoyl-2-piperidinecarboxamido]-pentanoic acid] (Bz-[Pip]-[ξD]-CH2F)
> 5,000 M^−1s^−1: Kinact against caspase-1 (human Caspase-1) | Kinact against caspase-8 (human Caspase-8) | Kinact against caspase-3 (human Caspase-3)

O=C(O)CC(NC(=O)[C@@H]1CCCCN1C(=O)c1cc2ccccc2o1)C(=O)CF (stereo partly drawn) [Compound 8, [3S/R,(2S)]-5-Fluoro-4-oxo-3-[1-(benzofuran-2-carbonyl)-2-piperidinecarboxamido]pentanoic acid]
> 5,000 M^−1s^−1: Kinact against caspase-1 (human Caspase-1) | Kinact against caspase-8 (human Caspase-8) | Kinact against caspase-3 (human Caspase-3)
